Data: the supplement of paper PMC10338343
± gives the standard deviation. Only a part is listed here, and it is no random draw. Many entries were measured with a wide error.

test system: MILI (PIWIL2) piRISC loaded with piRNA #1 (26 nt); assay: pre-steady-state target cleavage rate (min^-1); higher = faster piRNA-guided slicing of the target; settings: guide: piRNA #1 5'p-UGAGGUAGUAGGUUGUAUAGUAUCCA; auxiliary factor: 500 nM mouse GTSF1;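 further: 1 nM active piRISC with 0.1 nM target library at 33 °C single turnover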
In short: (§1)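 For Cleave-'n-Seq, a transcribed, DNA-blocked target RNA library […] met 1 nM active affinity-purified piRISC with one synthetic guide at 33 °C for 0–8 or 0–960 min in HEPES–potassium acetate buffer, with or without 500 nM GTSF1 partner protein. Uncleaved targets were sequenced and normalised to depth and weakly complementary targets, with three trials pooled and k3 capped at 0.0001 min^-1. A burst-and-steady-state fit supplied the pre-steady-state cleavage rate.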

Question: For GGAGAGGAUACAAUACAACGUACUACCUCA, which “pre-steady-state target cleavage rate” value is on record?
Answer: 0.0139 ± 0.003

Question: How did the “pre-steady-state target cleavage rate” value turn out when GGAGAGGAUACUAUACAACCUUCUACCUGA was run?
Answer: 0.00153 ± 0.0034

Question: Which “pre-steady-state target cleavage rate” value does the source give for GGAGACCUAUCUAUACAACCUACUACCUA here?
Answer: 0.0666 ± 0.0086

Question: Which “pre-steady-state target cleavage rate” value does the source give for GGAGACCUAUCUAUAGAACCUUCUACCUCA here?
Answer: 0.00178 ± 0.0045

Question: For GGAGAGGAUUCUAUAGAACCUACUACCUCA, which “pre-steady-state target cleavage rate” value is on record?
Answer: 0.157 ± 0.011

Question: Which “pre-steady-state target cleavage rate” value does the source give for GGAGACCUAACAAAACAACCUACUACCUCA here?
Answer: 0.00465 ± 0.0051

Question: GGAGACGAUACUAUACAACCUACUAGGACA was tested. Which “pre-steady-state target cleavage rate” value did it give?
Answer: 0.00128 ± 0.0083

Question: How did the “pre-steady-state target cleavage rate” value turn out when GGAGACCUAUGAAAACAACCUACUACCACA was run?
Answer: 0.00203 ± 0.0057

Question: For GGAGUGGAUACUAUACAACCUAGUACCUGA, which “pre-steady-state target cleavage rate” value is on record?
Answer: 0.000609 ± 0.0058

Question: How did the “pre-steady-state target cleavage rate” value turn out when GGAGACCAUACUAUACAACUCUACUACCUCA was run?
Answer: 0.000211 ± 0.0096

Question: GGAGUGGACACUAUACAACCUACUACCUCA was tested. Which “pre-steady-state target cleavage rate” value did it give?
Answer: 0.241 ± 0.025

Question: Which “pre-steady-state target cleavage rate” value does the source give for GGAGUGGAUACUAUACUAGCUACUACCUCA here?
Answer: 0.158 ± 0.011

Question: How did the “pre-steady-state target cleavage rate” value turn out when GGAGUGGAUAGUAUACAACCUUCUACCUCA was run?
Answer: 0.0115 ± 0.0038

Question: Which “pre-steady-state target cleavage rate” value does the source give for GGAGACCUAUGAUUACGAACCUACUACCUCA here?
Answer: 0.000367 ± 0.0099

Question: How did the “pre-steady-state target cleavage rate” value turn out when GGAGACCUAUGAUUACAACCUCCUACCUCA was run?
Answer: 0.00296 ± 0.003

Question: With GGAGACCUAUGAUAUCAACGAACUACCUCA as the sequence, how does the “pre-steady-state target cleavage rate” value read?
Answer: 0.000223 ± 0.014

Question: For GGAGUGGAUACUAUACAACCUAGAUCCUCA, which “pre-steady-state target cleavage rate” value is on record?
Answer: 0.000386 ± 0.0052

Question: GGAGACGAUACAAUACAACCUACUAGCUCA was tested. Which “pre-steady-state target cleavage rate” value did it give?
Answer: 0.137 ± 0.023

Question: GGAGACCUAACUAUACAACCUACACCUCA was tested. Which “pre-steady-state target cleavage rate” value did it give?
Answer: 0.00118 ± 0.011

Question: How did the “pre-steady-state target cleavage rate” value turn out when GGAGUGGAUACUUUACAACCUACAACCUCA was run?
Answer: 0.0647 ± 0.0091

Question: GGAGACCAUAGUAUACAUCCUACUACCUCA was tested. Which “pre-steady-state target cleavage rate” value did it give?
Answer: 0.19 ± 0.014

Question: For GGAGACCUUACUAAACAACCUAGUACCUCA, which “pre-steady-state target cleavage rate” value is on record?
Answer: 0.0259 ± 0.0068

Question: For GGAGACCUUACUAUCCAACCUACUACCUCA, which “pre-steady-state target cleavage rate” value is on record?
Answer: 0.17 ± 0.018

Question: For GGAGACGAUACUAAACUACCUACUACCUCA, which “pre-steady-state target cleavage rate” value is on record?
Answer: 0.24 ± 0.018

Question: GGAGACCAUACAAUACAACCUACAACCUCA was tested. Which “pre-steady-state target cleavage rate” value did it give?
Answer: 0.136 ± 0.014

Question: How did the “pre-steady-state target cleavage rate” value turn out when “GGAGAGGAUACUAUACAUGGAUGAUGGAGA [g14:g25:cont:t1A]” was run?
Answer: 0.000308 ± 0.01

Question: How did the “pre-steady-state target cleavage rate” value turn out when GGAGUGGAUACUAUACAACCUACUUACCUCA was run?
Answer: 0.133 ± 0.011

Question: With GGAGACCAUACUAUACAACCAAGUACCUCA as the sequence, how does the “pre-steady-state target cleavage rate” value read?
Answer: 0.00242 ± 0.0031

Question: How did the “pre-steady-state target cleavage rate” value turn out when GGAGACCUAUGAUUACAACCUACAACGUCA was run?
Answer: 0.000689 ± 0.0076

Question: How did the “pre-steady-state target cleavage rate” value turn out when GGAGACCUUACUAUACAACCUACUACUCUCA was run?
Answer: 0.242 ± 0.025

Question: GGAGUGGAUACUAUACAACCUAGUACGUCA was tested. Which “pre-steady-state target cleavage rate” value did it give?
Answer: 0.000667 ± 0.0053

Question: With GGAGACCUAUGAAUAAAACCUACUACCUCA as the sequence, how does the “pre-steady-state target cleavage rate” value read?
Answer: 0.00212 ± 0.0028

Question: GGAGACCUAACUAUACAACCAACUAGCUCA was tested. Which “pre-steady-state target cleavage rate” value did it give?
Answer: 0.00115 ± 0.011

Question: For GGAGACCAUACUUUACAACCUAGUACCUCA, which “pre-steady-state target cleavage rate” value is on record?
Answer: 0.119 ± 0.025

Question: Which “pre-steady-state target cleavage rate” value does the source give for GGAGUGGAUACUAUACAACCCACUACCUCA here?
Answer: 0.0174 ± 0.0024

Question: With GGAGACCUAUGAUAUGUUCCUACAUACCUCA as the sequence, how does the “pre-steady-state target cleavage rate” value read?
Answer: 0.00013 ± 0.031

Question: With “GGAGACCUAUGAUUACAACCUACUAGGAGA [g6:g17:cont:t1A]” as the sequence, how does the “pre-steady-state target cleavage rate” value read?
Answer: 0.000594 ± 0.0095

Question: GGAGACCUAUGAUAUCAACCUAGAUCCUCA was tested. Which “pre-steady-state target cleavage rate” value did it give?
Answer: 0.000108 ± 0.028

Question: For GGAGACGAUACAUAUACAACCUACUACCUCA, which “pre-steady-state target cleavage rate” value is on record?
Answer: 0.111 ± 0.013

test system: EfPiwi piRISC loaded with piRNA #1 (26 nt); assay: pre-steady-state target cleavage rate (min^-1); guide: piRNA #1 5'p-UGAGGUAGUAGGUUGUAUAGUAUCCA; MIWI and MILI are mouse PIWI proteins and EfPiwi is from a freshwater sponge; tags in brackets are library labels; higher = faster piRNA-guided slicing of the target; settings: auxiliary factor: 500 nM Ephydatia muelleri Gtsf1
In short: as §1

Question: How did the “pre-steady-state target cleavage rate” value turn out when GGAGAGGAUACAAUACAACGUACUACCUCA was run?
Answer: 0.00326 ± 0.002

Question: For GGAGAGGAUACUAUACAACCUUCUACCUGA, which “pre-steady-state target cleavage rate” value is on record?
Answer: 0.00393 ± 0.0023

Question: How did the “pre-steady-state target cleavage rate” value turn out when GGAGACCUAUCUAUACAACCUACUACCUA was run?
Answer: 0.00487 ± 0.0042

Question: With GGAGACCUAUCUAUAGAACCUUCUACCUCA as the sequence, how does the “pre-steady-state target cleavage rate” value read?
Answer: 0.000109 ± 0.022

Question: How did the “pre-steady-state target cleavage rate” value turn out when GGAGAGGAUUCUAUAGAACCUACUACCUCA was run?
Answer: 0.000611 ± 0.0059

Question: For GGAGACCUAACAAAACAACCUACUACCUCA, which “pre-steady-state target cleavage rate” value is on record?
Answer: 0.00903 ± 0.0046

Question: How did the “pre-steady-state target cleavage rate” value turn out when GGAGACGAUACUAUACAACCUACUAGGACA was run?
Answer: 0.00186 ± 0.0032

Question: Which “pre-steady-state target cleavage rate” value does the source give for GGAGACCUAUGAAAACAACCUACUACCACA here?
Answer: 0.00047 ± 0.017

Question: Which “pre-steady-state target cleavage rate” value does the source give for GGAGUGGAUACUAUACAACCUAGUACCUGA here?
Answer: 0.00271 ± 0.001

Question: GGAGACCAUACUAUACAACUCUACUACCUCA was tested. Which “pre-steady-state target cleavage rate” value did it give?
Answer: 0.000815 ± 0.0091

Question: How did the “pre-steady-state target cleavage rate” value turn out when GGAGUGGACACUAUACAACCUACUACCUCA was run?
Answer: 0.115 ± 0.041

Question: For GGAGUGGAUACUAUACUAGCUACUACCUCA, which “pre-steady-state target cleavage rate” value is on record?
Answer: 0.0081 ± 0.0031

Question: For GGAGUGGAUAGUAUACAACCUUCUACCUCA, which “pre-steady-state target cleavage rate” value is on record?
Answer: 0.00338 ± 0.0021

Question: With GGAGACCUAUGAUUACGAACCUACUACCUCA as the sequence, how does the “pre-steady-state target cleavage rate” value read?
Answer: 0.000881 ± 0.008

Question: For GGAGACCUAUGAUUACAACCUCCUACCUCA, which “pre-steady-state target cleavage rate” value is on record?
Answer: 0.00165 ± 0.0055

Question: Which “pre-steady-state target cleavage rate” value does the source give for GGAGACCUAUGAUAUCAACGAACUACCUCA here?
Answer: 0.000184 ± 0.019

Question: With GGAGUGGAUACUAUACAACCUAGAUCCUCA as the sequence, how does the “pre-steady-state target cleavage rate” value read?
Answer: 0.00311 ± 0.0016

Question: Which “pre-steady-state target cleavage rate” value does the source give for GGAGACGAUACAAUACAACCUACUAGCUCA here?
Answer: 0.00109 ± 0.0026

Question: GGAGACCUAACUAUACAACCUACACCUCA was tested. Which “pre-steady-state target cleavage rate” value did it give?
Answer: 0.00156 ± 0.0059

Question: For GGAGUGGAUACUUUACAACCUACAACCUCA, which “pre-steady-state target cleavage rate” value is on record?
Answer: 0.00185 ± 0.002

Question: How did the “pre-steady-state target cleavage rate” value turn out when GGAGACCAUAGUAUACAUCCUACUACCUCA was run?
Answer: 0.00617 ± 0.0032

Question: How did the “pre-steady-state target cleavage rate” value turn out when GGAGACCUUACUAAACAACCUAGUACCUCA was run?
Answer: 0.00247 ± 0.0038

Question: How did the “pre-steady-state target cleavage rate” value turn out when GGAGACCUUACUAUCCAACCUACUACCUCA was run?
Answer: 0.0791 ± 0.034

Question: Which “pre-steady-state target cleavage rate” value does the source give for GGAGACGAUACUAAACUACCUACUACCUCA here?
Answer: 0.00228 ± 0.0021

Question: For GGAGACCAUACAAUACAACCUACAACCUCA, which “pre-steady-state target cleavage rate” value is on record?
Answer: 0.00403 ± 0.0047

Question: For “GGAGAGGAUACUAUACAUGGAUGAUGGAGA [g14:g25:cont:t1A]”, which “pre-steady-state target cleavage rate” value is on record?
Answer: 0.000222 ± 0.017

Question: GGAGUGGAUACUAUACAACCUACUUACCUCA was tested. Which “pre-steady-state target cleavage rate” value did it give?
Answer: 0.00852 ± 0.0034

Question: For GGAGACCAUACUAUACAACCAAGUACCUCA, which “pre-steady-state target cleavage rate” value is on record?
Answer: 0.00273 ± 0.0056

Question: GGAGACCUAUGAUUACAACCUACAACGUCA was tested. Which “pre-steady-state target cleavage rate” value did it give?
Answer: 0.000192 ± 0.01

Question: GGAGACCUUACUAUACAACCUACUACUCUCA was tested. Which “pre-steady-state target cleavage rate” value did it give?
Answer: 0.0031 ± 0.0038

Question: With GGAGUGGAUACUAUACAACCUAGUACGUCA as the sequence, how does the “pre-steady-state target cleavage rate” value read?
Answer: 0.00381 ± 0.0014

Question: How did the “pre-steady-state target cleavage rate” value turn out when GGAGACCUAUGAAUAAAACCUACUACCUCA was run?
Answer: 0.000517 ± 0.013

Question: Which “pre-steady-state target cleavage rate” value does the source give for GGAGACCUAACUAUACAACCAACUAGCUCA here?
Answer: 0.00159 ± 0.0055

Question: For GGAGACCAUACUUUACAACCUAGUACCUCA, which “pre-steady-state target cleavage rate” value is on record?
Answer: 0.00535 ± 0.0043

Question: For GGAGUGGAUACUAUACAACCCACUACCUCA, which “pre-steady-state target cleavage rate” value is on record?
Answer: 0.00487 ± 0.0019

Question: With GGAGACCUAUGAUAUGUUCCUACAUACCUCA as the sequence, how does the “pre-steady-state target cleavage rate” value read?
Answer: 0.000159 ± 0.017

Question: With “GGAGACCUAUGAUUACAACCUACUAGGAGA [g6:g17:cont:t1A]” as the sequence, how does the “pre-steady-state target cleavage rate” value read?
Answer: 0.000742 ± 0.0083

Question: With GGAGACCUAUGAUAUCAACCUAGAUCCUCA as the sequence, how does the “pre-steady-state target cleavage rate” value read?
Answer: 0.000116 ± 0.019

Question: With GGAGACGAUACAUAUACAACCUACUACCUCA as the sequence, how does the “pre-steady-state target cleavage rate” value read?
Answer: 0.00804 ± 0.0033
